# Structures can show the parent of a compound that is named as a salt. The list shows a part of the results. Single values are uncertain here, since repeats match poorly.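 The human kidney-derived cells carry a stably integrated construct of eight TEAD-binding elements driving luciferase, read by luminescence in a drug-repurposing library screen. A compound counts as a hit when its signal is more than five robust Z scores above the plate mean.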
# Tested on: HEK293A TEAD-LUC reporter
# Test: TEAD-luciferase reporter activity (YAP activation), robust Z score vs plate; higher = stronger YAP/TEAD activation
# Settings: 24 h
Structure (SMILES),TEAD-luciferase reporter activity (compound concentration: 200 nM),TEAD-luciferase reporter activity (compound concentration: 2 uM),TEAD-luciferase reporter activity (compound concentration: 10 uM)
CC(=O)Nc1ccc(C(=O)NC(C)(C)C)cc1,inactive: 4.72,inactive: -0.677,inactive: 0.0192
CC(C)(S)C(=O)N[C@@H](CS)C(=O)O [bucillamine],inactive: 0.649,inactive: 1.89,inactive: -0.718
CCCCCCCC(=O)OCC(O)CO (stereo not given),inactive: 2.37,,inactive: -0.45
CCCCCCCC(=O)OCC(O)CO (stereo not given) [Monoctanoin],,inactive: -0.331,
CCNC(=O)[C@H]1C[C@@H](n2cnc3c(N[C@H](CC)Cc4sccc4Cl)ccnc32)[C@H](O)[C@@H]1O,inactive: 0.91,inactive: -0.24,inactive: 0.151
O=C(OC(CCN1CCCCC1)c1ccccc1)c1ccccc1 (stereo not given),inactive: 2.4,inactive: 3.03,inactive: 0.86
COC(CCN(C)C)(c1ccccc1)c1ccccc1,inactive: -1.04,inactive: 1.87,inactive: 0.581
Cc1cccc(N2CCN(CCCCN3C(=O)CNC3=O)CC2)c1,inactive: -0.0312,inactive: -1.82,inactive: -0.376
CN(C)CC(=O)N1Cc2ccccc2CC2(CCCCN2C)C1 (stereo not given),inactive: 0.159,,inactive: 1.56
CC(C)(OCc1ccc(-c2ccc(Cl)cc2)cc1)C(=O)O [clobuzarit],inactive: -0.184,inactive: -1.1,inactive: 1.16
COc1ccccc1N1CCN(CCCCn2c(=O)sc3cc(CCN4CCC(C(=O)c5ccc(F)cc5)CC4)ccc32)CC1,inactive: -2.11,inactive: 0.0102,inactive: 2.6
N#Cc1cc(Cl)cc(Oc2c(Cl)ccc3c2cnn3Cc2n[nH]c3ncccc23)c1,inactive: 0.594,inactive: -0.367,inactive: 0.378
C[C@H]1Cc2c([nH]c3cc(Cl)c(F)cc23)[C@@]2(N1)C(=O)Nc1ccc(Cl)cc12,inactive: -0.697,inactive: -0.108,inactive: -1.4
CCNCCCNCCCNCCCNCC,inactive: 1.44,inactive: -1.85,inactive: 3.33
Oc1cccc(O)c1O,inactive: -0.824,inactive: -2.22,inactive: 0.311
CCN(CC)CCCCC(NC(=O)c1ccc([N+](=O)[O-])cc1)c1ccccc1 (stereo not given) [Nibentan],inactive: -1.37,inactive: 1.56,inactive: 0.218
Cc1ccc(Sc2ccccc2N2CCNCC2)c(C)c1 [Vortioxetine hydrobromide],inactive: 0.185,inactive: -0.453,inactive: -0.933
CCCCCNC(=N)Nc1nc(-c2c[nH]c(C)n2)cs1,inactive: -0.842,inactive: -1.44,active: 6.4
CNCc1nc2c([nH]1)c(=O)n(C)c(=O)n2CC(C)C,inactive: 2.35,inactive: -1.47,inactive: -0.632
CCCCN1CCCC1C(=O)Nc1c(C)cc(C)cc1C (stereo not given),inactive: 0.992,inactive: -2.43,inactive: -0.716

Structure (SMILES),TEAD-luciferase reporter activity (compound concentration: 200 nM),TEAD-luciferase reporter activity (compound concentration: 2 uM),TEAD-luciferase reporter activity (compound concentration: 10 uM)
CN1C(C(=O)Nc2ccccn2)=C(O)c2ccccc2S1(=O)=O [Piroxicam],inactive: -2.8,,inactive: -0.047
CN1C(C(=O)Nc2ccccn2)=C(O)c2ccccc2S1(=O)=O [piroxicam olamine],,inactive: -0.0997,
CN1CCN(C2CCN(C(=O)Nc3cc(Oc4ccc(NC(=O)C5(C(=O)Nc6ccc(F)cc6)CC5)c(F)c4)ccn3)CC2)CC1 [golvatinib],inactive: -1.56,inactive: -2.62,
OC(CCN1CCCCC1)(c1ccccc1)C1CCCCC1 (stereo not given),inactive: -0.286,inactive: 0.141,inactive: 0.489
Cc1nc2ccc(-n3ncc(C(=O)c4cc5ccccc5[nH]4)c3N)cc2[nH]1,inactive: 1.7,inactive: -1.46,inactive: 0.059
COC1=C(OC)C(=O)C(CCCCCCCCCCO)=C(C)C1=O [idebe],,inactive: -0.862,
COC1=C(OC)C(=O)C(CCCCCCCCCCO)=C(C)C1=O,inactive: -0.279,,inactive: -0.812
Cc1ccc(C(=O)NC2CC2)cc1NC(=O)c1cnn(-c2ncccc2C(F)(F)F)c1C,inactive: -0.557,inactive: -0.854,inactive: 0.0569
COc1cc(C(=O)Nc2ccccc2CCC2CCCCN2C)ccc1O (stereo not given),inactive: -0.522,inactive: -0.745,inactive: -0.592
CCC(=O)O[C@]1(C(=O)SC)[C@H](C)C[C@H]2[C@@H]3C[C@H](F)C4=CC(=O)C=CC4(C)[C@@]3(F)[C@@H](O)CC21C (stereo not given in full) [ticabesone propionate],inactive: 0.0192,inactive: -0.411,inactive: 0.839
CCCN(CCC)C(=O)C(Cc1ccc(OCCCN2CCN(C)CC2)cc1)NC(=O)c1ccc(Br)cc1 (stereo not given),inactive: -0.289,inactive: -0.492,inactive: 0.215
O=C1N=C(N2CCCC2)CN1c1ccccc1,inactive: -0.917,inactive: 1.42,inactive: -1.41
CCCCC(=O)OCC(=O)[C@]1(O)Cc2c(O)c3c(c(O)c2[C@@H](O[C@H]2C[C@H](NC(=O)C(F)(F)F)[C@H](O)[C@H](C)O2)C1)C(=O)c1c(OC)cccc1C3=O [Valrubicin],inactive: 0.232,inactive: -0.516,inactive: 2.28
O=C1CCCSc2ccc(Cl)cc21,inactive: -0.777,inactive: -1.12,inactive: 0.623
CCN(CC)CCOC(c1ccccc1)c1ccccc1,inactive: -0.763,inactive: 0.138,inactive: 0.604
CN(C)CCN(C)C1COc2ccccc2-c2c(C3CCCCC3)c3ccc(C(=O)O)cc3n2C1 (stereo not given),inactive: -0.782,inactive: 0.0543,inactive: 0.829
CCCCc1cc(C(=O)O)cc(OCc2ccc(-c3ccccc3-c3nnn[nH]3)cc2F)n1,inactive: -0.269,inactive: -1.58,inactive: 1.43
Cc1ccc(-c2nc3c(O)cccc3s2)cc1,inactive: -0.597,inactive: 0.585,inactive: -0.541
O=c1sn(-c2cccc3ccccc23)c(=O)n1Cc1ccccc1 [Tideglusib],inactive: -0.875,inactive: 1.09,inactive: 3.14
COc1cc(C=CC(=O)N2CCN(CC(=O)NC(C)C)CC2)cc(OC)c1OC,inactive: -0.0729,inactive: -1.35,inactive: -1.19

Structure (SMILES),TEAD-luciferase reporter activity (compound concentration: 200 nM),TEAD-luciferase reporter activity (compound concentration: 2 uM),TEAD-luciferase reporter activity (compound concentration: 10 uM)
CC(=O)OCC(=O)[C@@]1(O)[C@H](C)CC2[C@@H]3CC[C@H]4CC(=O)CC[C@]4(C)C3=CC[C@@]21C (stereo not given in full),inactive: -1.1,inactive: -1.88,inactive: -0.449
COc1ccccc1OCC(O)CN1CCN(CC(=O)Nc2c(C)cccc2C)CC1 (stereo not given) [ranolazine],,inactive: -1.05,
COc1ccccc1OCC(O)CN1CCN(CC(=O)Nc2c(C)cccc2C)CC1 (stereo not given) [Ranolazine dihydrochloride],inactive: -0.194,,inactive: -0.422
CC(C)(C)NC(=O)Nc1nc2nc(Nc3ccc4nsnc4c3)ncc2cc1-c1c(Cl)cccc1Cl,inactive: -0.821,inactive: -2.14,inactive: -0.288
O=C1C(CCS(=O)c2ccccc2)C(=O)N(c2ccccc2)N1c1ccccc1 (stereo not given) [Sulfinpyrazone],inactive: 0.702,,inactive: -1.69
O=C1C(CCS(=O)c2ccccc2)C(=O)N(c2ccccc2)N1c1ccccc1 (stereo not given) [sulfinpyrazone],,inactive: -0.32,
COc1ccccc1N1CCN(C(=O)c2cccc3ccccc23)CC1,inactive: 0.769,inactive: -0.554,active: 15.3
CC(C)CCN1CCCC12Cc1ccccc1CNC2=O (stereo not given),active: 5.06,,active: 5.33
CCCCOc1cc(C(=O)OCCN(CC)CC)ccc1N [Oxybuprocaine hydrochloride],inactive: -0.379,inactive: -0.924,inactive: 1.29
"O=C(O)c1ccccc1O [salicylic acid, Orenova]",inactive: -0.545,inactive: 0.15,inactive: -0.183
O=C(O)c1ccccc1O [salicylic acid],,inactive: 1.2,
COc1ccc(C=Cc2cc(OC)c(OC)c(OC)c2)cc1O [Combretastatin A-4],inactive: 1.49,inactive: 1.4,inactive: 2.41
NCCCS(=O)(=O)O [Tramiprosate],inactive: 0.794,inactive: 0.367,inactive: 1.08
CCC[C@@H]1C[C@@H](C(=O)N[C@@H]([C@H]2O[C@H](SC)[C@H](O)[C@@H](O)[C@H]2O)[C@H](C)Cl)N(C)C1 [Clindamycin hydrochloride],,inactive: 0.945,
"COc1ccc2[nH]cc(CCNC(C)=O)c2c1 [melatonin, Alliance]",inactive: -0.264,inactive: -1.22,inactive: 0.126
C[n+]1cccc(C(=O)O)c1,inactive: -1.44,,inactive: -1.59
C[n+]1cccc(C(=O)O)c1 [Trigonelline],,inactive: -2.04,
CC(=O)Oc1ccccc1C(=O)Oc1cccc(CO[N+](=O)[O-])c1,inactive: -0.231,inactive: -0.23,inactive: 0.188
CC(C)c1c(C(=O)Nc2ccccc2)c(-c2ccccc2)c(-c2ccc(F)cc2)n1CC[C@@H](O)C[C@@H](O)CC(=O)O [Atorvastatin calcium],inactive: -0.38,inactive: 0.0899,inactive: 1.23
COc1cc2nc(N3CCN(C(=O)[C@@H](C)OC)CC3)nc(N)c2cc1OC [metazosin],inactive: 0.148,inactive: 0.22,inactive: 0.966

# Single records, as listed above:
# O=C(O)c1ccccc1O [salicylic acid] in the list: TEAD-luciferase reporter activity (compound concentration: 2 uM): inactive: 1.2
# COc1ccc2[nH]cc(CCNC(C)=O)c2c1 [melatonin, Alliance] in the list: TEAD-luciferase reporter activity (compound concentration: 200 nM): inactive: -0.264; TEAD-luciferase reporter activity (compound concentration: 2 uM): inactive: -1.22; TEAD-luciferase reporter activity (compound concentration: 10 uM): inactive: 0.126
# CC(=O)OCC(=O)[C@@]1(O)[C@H](C)CC2[C@@H]3CC[C@H]4CC(=O)CC[C@]4(C)C3=CC[C@@]21C (stereo not given in full) in the list: TEAD-luciferase reporter activity (compound concentration: 200 nM): inactive: -1.1; TEAD-luciferase reporter activity (compound concentration: 2 uM): inactive: -1.88; TEAD-luciferase reporter activity (compound concentration: 10 uM): inactive: -0.449
# COc1cc2nc(N3CCN(C(=O)[C@@H](C)OC)CC3)nc(N)c2cc1OC [metazosin] in the list: TEAD-luciferase reporter activity (compound concentration: 200 nM): inactive: 0.148; TEAD-luciferase reporter activity (compound concentration: 2 uM): inactive: 0.22; TEAD-luciferase reporter activity (compound concentration: 10 uM): inactive: 0.966
